From paper PMC12339988
These are yes or no findings as the source states them, for the method shown. Binding seen in cells or lysates may run through a third protein. Here binding means that the protein was enriched with, or labelled near, the bait; the list need not be complete.

Chains of the proteins cited; added tags and fusions are not shown.
UniProt P33993: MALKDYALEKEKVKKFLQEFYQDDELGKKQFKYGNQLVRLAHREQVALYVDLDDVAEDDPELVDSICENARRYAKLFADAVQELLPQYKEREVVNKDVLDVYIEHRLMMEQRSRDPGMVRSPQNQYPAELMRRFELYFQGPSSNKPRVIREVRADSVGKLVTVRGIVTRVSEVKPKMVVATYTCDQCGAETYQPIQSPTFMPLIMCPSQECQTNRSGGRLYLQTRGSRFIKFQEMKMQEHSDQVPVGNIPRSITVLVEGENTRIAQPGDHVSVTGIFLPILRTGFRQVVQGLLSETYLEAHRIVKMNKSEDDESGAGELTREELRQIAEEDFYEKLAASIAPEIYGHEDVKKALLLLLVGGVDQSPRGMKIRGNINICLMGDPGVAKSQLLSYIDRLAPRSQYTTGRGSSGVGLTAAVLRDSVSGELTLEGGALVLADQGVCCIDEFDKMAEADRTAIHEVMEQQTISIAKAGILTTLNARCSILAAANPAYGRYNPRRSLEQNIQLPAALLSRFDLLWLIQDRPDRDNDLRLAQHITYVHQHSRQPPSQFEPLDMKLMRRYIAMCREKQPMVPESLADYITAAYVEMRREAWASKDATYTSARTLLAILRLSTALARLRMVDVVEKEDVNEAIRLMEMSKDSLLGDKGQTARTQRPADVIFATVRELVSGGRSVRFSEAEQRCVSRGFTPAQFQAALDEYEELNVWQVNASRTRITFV

T1: SHCBP1, endogenous (human (endogenous in HepG2 and HL7702)) (UniProt Q8NEM2)
T1 sequence: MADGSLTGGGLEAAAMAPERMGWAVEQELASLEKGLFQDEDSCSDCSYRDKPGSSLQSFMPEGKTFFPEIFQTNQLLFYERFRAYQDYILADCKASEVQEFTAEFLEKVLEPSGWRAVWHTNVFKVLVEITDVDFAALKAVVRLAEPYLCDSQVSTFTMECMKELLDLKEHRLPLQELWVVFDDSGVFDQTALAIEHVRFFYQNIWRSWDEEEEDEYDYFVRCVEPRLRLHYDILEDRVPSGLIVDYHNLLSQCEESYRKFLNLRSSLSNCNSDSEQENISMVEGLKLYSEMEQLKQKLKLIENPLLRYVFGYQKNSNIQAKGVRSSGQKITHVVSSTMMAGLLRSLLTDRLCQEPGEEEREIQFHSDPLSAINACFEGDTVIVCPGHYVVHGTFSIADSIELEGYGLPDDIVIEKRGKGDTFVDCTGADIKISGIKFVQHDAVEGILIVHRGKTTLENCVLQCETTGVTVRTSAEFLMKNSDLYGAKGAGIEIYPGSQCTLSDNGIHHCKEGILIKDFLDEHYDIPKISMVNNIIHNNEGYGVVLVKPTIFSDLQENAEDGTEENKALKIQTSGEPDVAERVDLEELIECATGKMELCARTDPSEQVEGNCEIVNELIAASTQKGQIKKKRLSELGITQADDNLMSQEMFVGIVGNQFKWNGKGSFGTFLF

B1: SHCBP1, endogenous (protein, UniProt Q8NEM2 1-672)
chain: MADGSLTGGGLEAAAMAPERMGWAVEQELASLEKGLFQDEDSCSDCSYRDKPGSSLQSFMPEGKTFFPEIFQTNQLLFYERFRAYQDYILADCKASEVQEFTAEFLEKVLEPSGWRAVWHTNVFKVLVEITDVDFAALKAVVRLAEPYLCDSQVSTFTMECMKELLDLKEHRLPLQELWVVFDDSGVFDQTALAIEHVRFFYQNIWRSWDEEEEDEYDYFVRCVEPRLRLHYDILEDRVPSGLIVDYHNLLSQCEESYRKFLNLRSSLSNCNSDSEQENISMVEGLKLYSEMEQLKQKLKLIENPLLRYVFGYQKNSNIQAKGVRSSGQKITHVVSSTMMAGLLRSLLTDRLCQEPGEEEREIQFHSDPLSAINACFEGDTVIVCPGHYVVHGTFSIADSIELEGYGLPDDIVIEKRGKGDTFVDCTGADIKISGIKFVQHDAVEGILIVHRGKTTLENCVLQCETTGVTVRTSAEFLMKNSDLYGAKGAGIEIYPGSQCTLSDNGIHHCKEGILIKDFLDEHYDIPKISMVNNIIHNNEGYGVVLVKPTIFSDLQENAEDGTEENKALKIQTSGEPDVAERVDLEELIECATGKMELCARTDPSEQVEGNCEIVNELIAASTQKGQIKKKRLSELGITQADDNLMSQEMFVGIVGNQFKWNGKGSFGTFLF
B2: RACGAP1, endogenous (protein, UniProt Q9H0H5 1-632)
chain: MDTMMLNVRNLFEQLVRRVEILSEGNEVQFIQLAKDFEDFRKKWQRTDHELGKYKDLLMKAETERSALDVKLKHARNQVDVEIKRRQRAEADCEKLERQIQLIREMLMCDTSGSIQLSEEQKSALAFLNRGQPSSSNAGNKRLSTIDESGSILSDISFDKTDESLDWDSSLVKTFKLKKREKRRSTSRQFVDGPPGPVKKTRSIGSAVDQGNESIVAKTTVTVPNDGGPIEAVSTIETVPYWTRSRRKTGTLQPWNSDSTLNSRQLEPRTETDSVGTPQSNGGMRLHDFVSKTVIKPESCVPCGKRIKFGKLSLKCRDCRVVSHPECRDRCPLPCIPTLIGTPVKIGEGMLADFVSQTSPMIPSIVVHCVNEIEQRGLTETGLYRISGCDRTVKELKEKFLRVKTVPLLSKVDDIHAICSLLKDFLRNLKEPLLTFRLNRAFMEAAEITDEDNSIAAMYQAVGELPQANRDTLAFLMIHLQRVAQSPHTKMDVANLAKVFGPTIVAHAVPNPDPVTMLQDIKRQPKVVERLLSLPLEYWSQFMMVEQENIDPLHVIENSNAFSTPQTPDIKVSLLGPVTTPEHQLLKTPSSSSLSQRVRSTLTKNTPRFGSKSKSATNLGRQGNFFASPMLK

Columns and labels:
[1] = biological target: MCM7 expressed from pHAGE-MCM7 in stable HL7702 cells (UniProt P33993); assay: affinity purification with mass spectrometry; anti-MCM7 antibody and protein A/G-agarose beads on lysate of stable HL7702 cells expressing MCM7 (pHAGE-MCM7); overnight at 4 °C; IgG control; gel digested, LC-MS/MS
[2] = biological target: T1, SHCBP1, endogenous (human (endogenous in HepG2 and HL7702)); assay: affinity purification with mass spectrometry; anti-SHCBP1 antibody on lysate of a hepatocyte cell line; same protocol as the anti-MCM7 IP-MS

| Binder | binding [1] | binding [2] |
| --- | --- | --- |
| B1 | binds |  |
| B2 |  | binds |
